Reference: US7579474B2, “Substituted piperidines as modulators of dopamine neurotransmission” (NSAB, Filial AF Neurosearch AB, Sverige, priority 2004, dated 2009)
Some results were stated once for a whole list of compounds, not compound by compound.

The compounds below were run on DOPAC (3,4-dihydroxyphenylacetic acid) in the rat striatum (assay: Increase of DOPAC in the rat striatum after systemic administration (in vivo neurochemistry)). Conditions: see Table 1.
Text: After the behavioural activity sessions, the rats were decapitated and their brains rapidly taken out and put on an ice-cold petri-dish. The limbic forebrain, the striatum, the frontal cortex and the remaining hemispheral parts of each rat were dissected and frozen. Each brain part was subsequently analyzed with respect to its content of monoamines and their metabolites.
The monoamine transmitter substances (NA (noradrenaline), DA (dopamine), 5-HT (serotonin)) as well as their amine (NM (normethanephrine), 3-MT (3-methoxytyramine)) and acid (DOPAC (3,4-dihydroxyphenylacetic acid), 5-HIAA (5-hydroxyindoleacetic acid), HVA (homovanillic acid)) metabolites are quantified in brain tissue homogenates by HPLC separations and electrochemical detection.
The analytical method is based on two chromatographic separations dedicated for amines or acids. Two chromatographic systems share a common auto injector with a 10-port valve and two sample loops for simultaneous injection on the two systems. Both systems are equipped with a reverse phase column (Luna C18(2), dp 3 μm, 50*2 mm i.d., Phenomenex) and electrochemical detection is accomplished at two potentials on glassy carbon electrodes (MF-1000, Bioanalytical Systems, Inc.). Via a T-connection the column effluent is passed to the detection cell or to waste. This is accomplished by two solenoid valves, which block either the waste or detector outlet. By not letting the chromatographic front reach the detector, better detection conditions are achieved. The aqueous mobile phase (0.4 ml/min) for the acid system contains Citric Acid 14 mM, Sodium Citrate 10 mM, MeOH 15% (v/v) and EDTA 0.1 mM. Detection potentials relative to Ag/AgCl reference is 0.45 and 0.60V. The aqueous ion pairing mobile phase (0.5 ml/min) for the amine system contains Citric Acid 5 mM, Sodium Citrate 10 mM, MeOH 9% (v/v), MeCN 10.5% (v/v), Decane Sulfonic Acid 0.45 mM, and EDTA 0.1 mM. Detection potentials relative to Ag/AgCl reference is 0.45 and 0.65V.
ED50 values for the increase of DOPAC in striatum are calculated by curve fitting. For most compounds, the evaluation is based on 20 animals over the dose range 0, 3.7, 11, 33 and 100 μmol/kg s.c. in one single experiment. The DOPAC levels are normalised to control and fitted by least square minimization to the function “End-(End-Control)/(1+(dose/ED50)^Slope)”. The four parameters are fitted with the restrictions: ED50>0, 0.5<Slope<3, 350<End<400 or End=200% of control (see table 1). To estimate confidence levels for the parameters, the fit is repeated 100 times with a random evenly distributed squared weight (0 to 1) for every measurement value. Presented ED50-ranges cover 95% of these values.

Row | SMILES | dopamine stabilizer activity
1 | CCCN1CCC(O)(c2cccc(C(F)(F)F)c2OC)CC1 | devoid of dopamine stabilizer activity
2 | CCCN1CCC(O)(c2cccc(S(C)(=O)=O)c2)CC1 [drawing 22] | devoid of dopamine stabilizer activity
3 | CCCCN1CCC(O)(c2cccc(S(C)(=O)=O)c2F)CC1 | devoid of dopamine stabilizer activity
4 | CCN1CCC(O)(c2cc(F)cc(C(F)(F)F)c2)CC1 | devoid of dopamine stabilizer activity
